According to publication PMC10163288:
The list shows a part of the results.

B1: il10ra_site1_sap_20_mot_HHH_b2_07579_000000275_0001_1_19_H_._HHH_b2_06655_0001_0000100003_0000001_0_0001 (protein)
chain: SSSDERERVWELLKKALELLARGDKEEAEEVVKEAEEIAEEGGDMVLLVVIRFLLEQIRRQSSSS
B2: il10ra_site1_sap_22_mot_HHH_b2_06321_af2_000000133_0001_42_55_H_._HHH_b1_02534_af2_0001_0000800018_0000002_0_0001 (protein)
chain: SSSSDEETQRAMELVERASEADQRGDEEEVRELLEEALELAEEGNNWALQFAIRMILERLNSSSS
B3: il10ra_site1_sap_22_mot_HHH_b2_08186_000000021_0001_43_56_H_._HHH_b2_02553_0001_0000400018_0000001_0_0001 (protein)
chain: SSSSSDLEEAVEELLEEARHIEDPDERYKVLEEAIEVAHEAGDPELARLIMEFLREMVQGSSSSS
B4: il10ra_site1_normal_mot_HHH_b1_04065_000000255_0001_41_56_H_._HHH_b2_01603_0001_0000200013_0000001_0_af2pred_0001 (protein)
chain: SSSSSNDEEAAHIFIEALRLAHELGDEETFREVIQLAVKYFREGDPRYLEEVEELLEELRSSSSS
B5: il10ra_site1_sap_19_mot_HHH_b2_07521_000000141_0001_20_37_H_._HHH_b2_07882_0001_0000300023_0000001_0_0001 (protein)
chain: SSSSSDVEEYVRQAARFIRALLEAGNPEAARSLLRALEDIAKKHNDEEAEEIVKELEELLSSSSS
B6: il10ra_site1_normal_mot_HHH_b1_05865_af2_000000211_0001_1_17_H_._HHH_b2_08125_0001_0000300030_0000001_0 (protein)
chain: SSSSSSDIEEEVEELLERAERVSEEEAFELLVEALRLAFKAGNDELLKEIWEFYKRLRSSSSSSS
B7: il10ra_site1_sap_11_mot_HHH_b1_05860_000000142_0001_1_19_H_._HHH_b2_01378_0001_0000400028_0000002_0_0001 (protein)
chain: SSSSSEEEELVRAAREIARQAYENGNPEEARYLLEALLENLEKEGNEELVEEVRELLEELSSSSS
B8: il10ra_site1_normal_mot_HEEHE_1605_000000211_0001_40_56_H_._544ef0e38e907b7890d4414ebae48784_0001_1_0001_0000100003_0000001_0_af2pred_dldesign_0_af2pred (protein)
chain: SKEELLERLAELLGLAPETVKYALEQLTAQTGDPDAAIDAFLAGLELSGRLTPEVAALLARLREE
B9: il10ra_site1_sap_19_mot_HHH_b1_05214_000000232_0001_38_57_H_._HHH_b2_00758_0001_0000400024_0000001_0_0001 (protein)
chain: SSSSDIRELYELSREAVELRHEGNPEEAEKVVEEAEELARELNNRVLLAVIEWLREAIETSSSSS
B10: il10ra_site1_normal_mot_HHH_b2_03220_af2_000000223_0001_23_40_H_._HHH_b2_04195_af2_0001_0000100007_0000001_0 (protein)
chain: SSSSTEREEVWELLRRALELLANGNPEEAEKLLEEARRIAEELNSELFEFAIRLLERDVEISSSS
B11: il10ra_site1_normal_mot_HHH_b2_00277_af2_000000172_0001_1_17_H_._HHH_b2_05985_0001_0000200017_0000002_0_af2pred_0001 (protein)
chain: SSSSDEERLEELLRILEELVKKNDEEEFKEVYKEAAEIAAKLRDLEASHKLTELFALLTNSSSSS
B12: il10ra_site1_normal_mot_HHH_b1_04065_000000255_0001_41_56_H_._HHH_b2_04118_0001_0000500025_0000001_0 (protein)
chain: SSSSSSEEEERVEELLEEAKHIEDPKERSHVLLRASRIAYELRDQELLRLIDKVAIELYSSSSSS
B13: il10ra_site1_sap_16_mot_HHH_b2_05401_af2_000000143_0001_1_14_H_._7b9e6e68400ffa30f527534e580da0a7_0001_1_af2_0001_0000100003_0000001_0_0001 (protein)
chain: SSSSDEEKRVAELLHQAMEAYKNKDEERLEELLEEIRRLAEELNNPLLEWLVRLLEEALKNSSSS
B14: il10ra_site1_normal_mot_HHH_b1_00682_000000211_0001_1_20_H_._HHH_b1_08465_0001_0000200010_0000001_0_af2pred_0001 (protein)
chain: SSSSDLEERVEELLERAEELYEKGNPEEAVRLIREAIELVSKNNNDELIELVREVSRRLSDSSSS
B15: il10ra_site1_normal_mot_7d538683ae38ff56261eb02f12605454_0001_af2_000000062_0001_54_65_H_._HHH_b1_03177_0001_0000200008_0000001_0 (protein)
chain: SSSSDSQVIVEAAKLALRWAYEAGDPEHLEAILRIYREALKDAGDPEALEELEEFYEELESSSSS
B16: il10ra_site1_normal_mot_HHH_b1_02062_000000185_0001_1_20_H_._HHH_b1_04860_0001_0000300024_0000001_0_af2pred_0001 (protein)
chain: SSSSDELERVQELSREAAELLRKGDPEEAREVLEEARELAEELNNPVLRLIIEYLLKLIHSSSSS
B17: il10ra_site1_normal_mot_HHH_b2_04275_000000272_0001_20_36_H_._HHH_b2_04520_0001_0000100005_0000001_1 (protein)
chain: SSSSDETQELYKLLREIVELIHEGDDEEARRLLEEARELAEELGNDIVRAQLEFLERHLESSSSS
B18: il10ra_site1_sap_23_mot_HHH_b1_03531_000000273_0001_41_54_H_._HHH_b2_03953_0001_0000200015_0000001_0_0001 (protein)
chain: SSSSSSEEEERVEELEEEFHRVDSQEQYKIIKEIIELASESNDPRLFRVAHRLVRAFARSSSSSS
B19: il10ra_site1_sap_11_mot_HHH_b1_07768_000000240_0001_18_35_H_._HHH_b1_01268_0001_0000200021_0000002_0_0001_af2pred_0001 (protein)
chain: SSSSSDEEVRERIEELLEEAEQISDEEEAVQVLFEALRLADELGDEEIFRAVIEVAIRLHSSSSS
B20: il10ra_site1_sap_13_mot_9c3e5e2d2b9ffb70dc788f52fbfab6d5_0001_1_000000198_0001_1_14_H_._HHH_b1_03259_0001_0000500036_0000001_0_0001 (protein)
chain: SSSSDEELRELVREVLELMFRGNPEEAEELAEQLLELAEELGDPLAEAIRMLLEIIRRSKSSSSS
B21: il10ra_site1_sap_18_mot_HHH_b2_00033_000000036_0001_41_54_H_._HHH_b1_01859_0001_0000100001_0000001_0_0001_af2pred_0001 (protein)
chain: SSSSDDEERERYAVEALLLAARRVEDEELVRATLRLAKQIAELLNDPELRRLVEELEEELSSSSS
B22: il10ra_site1_sap_18_mot_HHH_b1_08176_000000188_0001_1_20_H_._HHH_b2_06969_af2_0001_0000200016_0000001_0_0001 (protein)
chain: SSSSSDEAAEQIYKLIREAMEIDDKEEAREILEEALELAEEAGNQVLAIQVRFALEQLHSSSSSS
B23: il10ra_site1_normal_mot_HHH_b2_00277_af2_000000172_0001_1_17_H_._HHH_b2_05212_0001_0000100013_0000001_0_af2pred_0001 (protein)
chain: SSSSDEEVRERVEELLEEAKKVEDPKEVAELLTRAFALATRNRDEELRELVKKVAQEVSESSSSS
B24: il10ra_site1_sap_19_mot_HHH_b1_08508_000000230_0001_42_56_H_._HHH_b1_06584_0001_0000100001_0000001_0_0001 (protein)
chain: SSSSDEERLRVSHLLIQAYAAANEGDEEAVEELLEEARRVAEEGNDPRLEEIVEIVAEELLSSSS
B25: il10ra_site1_sap_21_mot_HHH_b1_05126_000000010_0001_38_52_H_._HHH_b1_01143_0001_0000100005_0000001_1_0001 (protein)
chain: SSSSSDEEEEAEELLEELERLVERNDPERFLKVSIRLLHLAFQLRDHELLQRIWELARAFSSSSS
B26: il10ra_site1_normal_mot_HHH_b2_05540_000000178_0001_1_18_H_._HHH_b1_06139_0001_0000200023_0000002_0 (protein)
chain: SSSSDEEEEELREYLKEIEELIEEGDPQRALQLIWEAAKLAAEANDDEILRILLELLRFVASSSS
B27: il10ra_site1_sap_21_mot_HHH_b2_03220_af2_000000223_0001_23_40_H_._HHH_b1_04109_0001_0000100003_0000001_0_0001 (protein)
chain: SSSSSDELFKAVERAYREAKEAWERGDPEEAREIIEEALELARENNNWVAVMVLEAAEKMFSSSS
B28: il10ra_site1_normal_mot_HHH_b1_05056_000000217_0001_1_20_H_._HHH_b2_07492_0001_0000400021_0000001_0 (protein)
chain: SSSSDVEEEVRELLEQAEELREEGDPEKVAELLLRALELAFRNNDAEALRLIWEVVRKLADSSSS
B29: il10ra_site1_normal_mot_HHH_b1_08411_af2_000000053_0001_1_20_H_._HHH_b2_01245_0001_0000300014_0000002_0 (protein)
chain: SSSSSSEEEEEVRELLEEAKHVPDAQEFFELLRKAIEVAAKANDPELARLVIEVLREWLRSSSSS
B30: il10ra_site1_sap_14_mot_HHH_b1_04065_000000255_0001_41_56_H_._e521b9f01f45ceda164a680f45961af8_0001_af2_0001_0000200010_0000001_0_0001 (protein)
chain: SSSSDELERRAEELLQEAEERNDELLAKSARAVLQAVKRAEELGDPEYAELALRFLEQMLSSSSS
B31: il10ra_site1_normal_mot_HHH_b1_02062_000000185_0001_1_20_H_._HHH_b2_03305_0001_0000200015_0000001_0 (protein)
chain: SSSSSDVSQRLYELSRRAAELDSEGNPEEAEKLLEEAFELAEENNNLVVLHNIEYLLERASSSSS
B32: il10ra_site1_normal_mot_HHH_b2_02337_000000026_0001_38_52_H_._HHH_b1_01793_0001_0000200022_0000001_0 (protein)
chain: SSSSSEEEVEELLKELERLLEEGDQERFSRLAQKIAQLAIRVSDPELLQALWELVREFARKSSSS
B33: il10ra_site1_sap_20_mot_HHH_b1_04607_af2_000000104_0001_41_57_H_._HHH_b1_03852_0001_0000600051_0000001_0_0001_af2pred_0001 (protein)
chain: SSSSSSDEFEELLEEAERLAEELGDERIRISIELDERSYREKGDPLIERALRLLLELLSSSSSSS
B34: il10ra_site1_sap_18_mot_HHH_b1_08133_000000195_0001_1_19_H_._HHH_b1_06661_0001_0000100001_0000001_0_0001_1 (protein)
chain: SSSSSDEEYEEEVEELLEEAKRIPDPRERSHVLLRAVQLAFHGQDPELVRAVWEVFEKLFSSSSS
B35: il10ra_site1_normal_mot_HHH_b1_04592_af2_000000261_0001_39_52_H_._HHH_b1_08709_af2_0001_0000100004_0000001_0_af2pred_0001 (protein)
chain: SSSSDEEKRLVELLERLAKEAAENGDPELAERLLEAAIQIAELSGDPELEEELEELLEEISSSSS
B36: il10ra_site1_sap_18_mot_HHH_b1_06816_000000239_0001_1_19_H_._HHH_b1_02068_0001_0000100002_0000001_0_0001 (protein)
chain: SSSSSEEEELRELLEELKELVEKGDQEKVLRLALRIIRLVFRLSDPEALRELWELMERAGSSSSS
B37: il10ra_site1_normal_mot_e1dd4851c59bc1cdde016f988f6856bd_0001_1_000000200_0001_16_31_H_._HEEHE_3305_0001_0000100005_0000001_0_af2pred_0001 (protein)
chain: DLEREFENRLKFIARAANVRSVTVEEENGKIHVTIEGTERAAEIAAKSAEILAEKLGVEVEVTTE

These binders were tested against il10ra, Q13651 (assay: yeast display titration).

Apparent Kd, inactive:
B1 no binding seen
B2 no binding seen
B3 no binding seen
B4 no binding seen
B5 no binding seen
B6 no binding seen
B7 no binding seen
B8 no binding seen
B9 no binding seen
B10 no binding seen
B11 no binding seen
B12 no binding seen
B13 no binding seen
B14 no binding seen
B15 no binding seen
B16 no binding seen
B17 no binding seen
B18 no binding seen
B19 no binding seen
B20 no binding seen
B21 no binding seen
B22 no binding seen
B23 no binding seen
B24 no binding seen
B25 no binding seen
B26 no binding seen
B27 no binding seen
B28 no binding seen
B29 no binding seen
B30 no binding seen
B31 no binding seen
B32 no binding seen
B33 no binding seen
B34 no binding seen
B35 no binding seen
B36 no binding seen
B37 no binding seen

Three records picked at random from the list so far:
Apparent Kd, inactive:
B20 no binding seen
B21 no binding seen
B11 no binding seen
